From article PMC9512921
These are yes or no findings as the source states them, for the method shown. Binding seen in cells or lysates may run through a third protein. These calls come from enrichment with a bait or labelling near it, and not all partners need be listed.

Amino acid sequences for entries named in this document (tags omitted).
UniProt Q9JMA1: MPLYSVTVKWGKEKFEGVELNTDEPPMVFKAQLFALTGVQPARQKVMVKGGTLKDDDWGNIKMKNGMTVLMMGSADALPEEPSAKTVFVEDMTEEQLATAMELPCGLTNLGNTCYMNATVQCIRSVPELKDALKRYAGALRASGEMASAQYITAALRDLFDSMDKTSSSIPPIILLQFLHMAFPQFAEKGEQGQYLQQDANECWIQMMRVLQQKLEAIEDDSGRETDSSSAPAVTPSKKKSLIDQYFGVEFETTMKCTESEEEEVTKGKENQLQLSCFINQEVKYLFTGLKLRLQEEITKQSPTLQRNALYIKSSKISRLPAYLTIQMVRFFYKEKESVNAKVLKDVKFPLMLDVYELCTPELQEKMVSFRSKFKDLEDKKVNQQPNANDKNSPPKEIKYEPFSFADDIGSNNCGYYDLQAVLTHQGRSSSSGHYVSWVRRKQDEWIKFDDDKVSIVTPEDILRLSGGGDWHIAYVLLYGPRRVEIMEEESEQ
UniProt P52479: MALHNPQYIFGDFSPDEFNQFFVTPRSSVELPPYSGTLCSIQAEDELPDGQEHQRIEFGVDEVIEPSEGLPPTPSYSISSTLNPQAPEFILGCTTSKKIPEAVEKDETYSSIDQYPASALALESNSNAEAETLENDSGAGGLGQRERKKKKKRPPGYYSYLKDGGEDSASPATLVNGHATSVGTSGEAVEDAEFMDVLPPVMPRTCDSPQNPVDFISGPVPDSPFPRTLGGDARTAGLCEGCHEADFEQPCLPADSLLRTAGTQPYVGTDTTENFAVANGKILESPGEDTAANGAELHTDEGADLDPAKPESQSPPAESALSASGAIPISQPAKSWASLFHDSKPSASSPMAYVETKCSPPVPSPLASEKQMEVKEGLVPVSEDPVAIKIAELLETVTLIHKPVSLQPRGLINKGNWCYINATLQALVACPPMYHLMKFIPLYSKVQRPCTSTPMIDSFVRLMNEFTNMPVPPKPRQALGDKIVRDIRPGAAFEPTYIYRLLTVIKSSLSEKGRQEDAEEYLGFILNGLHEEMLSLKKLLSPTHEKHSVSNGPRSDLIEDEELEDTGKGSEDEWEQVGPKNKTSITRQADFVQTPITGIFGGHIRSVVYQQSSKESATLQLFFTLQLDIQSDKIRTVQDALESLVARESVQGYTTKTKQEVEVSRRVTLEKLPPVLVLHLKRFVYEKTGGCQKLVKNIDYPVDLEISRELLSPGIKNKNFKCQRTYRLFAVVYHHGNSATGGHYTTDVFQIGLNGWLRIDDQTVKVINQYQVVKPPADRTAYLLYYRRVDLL
UniProt P56399: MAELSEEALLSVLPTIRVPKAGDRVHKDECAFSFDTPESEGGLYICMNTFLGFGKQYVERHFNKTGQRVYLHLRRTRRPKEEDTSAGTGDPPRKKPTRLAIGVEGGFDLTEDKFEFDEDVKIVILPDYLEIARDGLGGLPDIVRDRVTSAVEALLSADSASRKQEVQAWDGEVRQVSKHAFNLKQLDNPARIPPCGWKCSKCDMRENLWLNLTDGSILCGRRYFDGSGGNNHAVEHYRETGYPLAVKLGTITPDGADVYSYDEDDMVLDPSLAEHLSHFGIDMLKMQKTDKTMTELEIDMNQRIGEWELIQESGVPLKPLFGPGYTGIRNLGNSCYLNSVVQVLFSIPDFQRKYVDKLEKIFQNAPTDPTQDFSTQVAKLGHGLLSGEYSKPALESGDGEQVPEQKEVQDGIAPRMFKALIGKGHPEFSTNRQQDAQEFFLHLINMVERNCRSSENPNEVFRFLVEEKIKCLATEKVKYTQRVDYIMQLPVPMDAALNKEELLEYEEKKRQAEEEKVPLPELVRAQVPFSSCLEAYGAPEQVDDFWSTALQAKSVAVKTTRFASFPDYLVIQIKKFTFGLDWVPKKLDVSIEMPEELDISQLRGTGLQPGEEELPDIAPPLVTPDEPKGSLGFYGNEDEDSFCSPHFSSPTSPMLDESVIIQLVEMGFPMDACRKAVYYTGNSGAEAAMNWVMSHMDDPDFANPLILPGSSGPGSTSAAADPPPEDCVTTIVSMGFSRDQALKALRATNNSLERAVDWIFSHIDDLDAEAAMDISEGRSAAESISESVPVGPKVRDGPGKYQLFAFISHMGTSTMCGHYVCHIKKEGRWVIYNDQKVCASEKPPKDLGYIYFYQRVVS

T1: p66Shc (66 kDa isoform of ShcA), endogenous (mouse (endogenous in mouse liver and AML12)) (UniProt P98083)
T1 sequence: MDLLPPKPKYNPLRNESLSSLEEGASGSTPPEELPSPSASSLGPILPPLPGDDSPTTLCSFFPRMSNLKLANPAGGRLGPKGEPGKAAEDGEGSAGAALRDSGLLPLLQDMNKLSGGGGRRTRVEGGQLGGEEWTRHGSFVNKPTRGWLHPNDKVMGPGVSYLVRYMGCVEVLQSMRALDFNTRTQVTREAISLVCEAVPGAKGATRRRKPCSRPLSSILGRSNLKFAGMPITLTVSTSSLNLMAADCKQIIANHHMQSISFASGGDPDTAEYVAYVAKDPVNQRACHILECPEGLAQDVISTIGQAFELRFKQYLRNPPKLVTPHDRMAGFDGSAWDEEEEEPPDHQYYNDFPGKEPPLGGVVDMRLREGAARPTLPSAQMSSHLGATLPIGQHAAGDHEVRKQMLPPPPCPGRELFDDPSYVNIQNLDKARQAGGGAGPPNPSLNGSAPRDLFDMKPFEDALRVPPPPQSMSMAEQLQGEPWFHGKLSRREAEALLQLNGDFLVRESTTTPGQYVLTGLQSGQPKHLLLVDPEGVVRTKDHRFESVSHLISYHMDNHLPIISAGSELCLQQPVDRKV

B1: USP47, endogenous (enzyme, UniProt Q8BY87 1-1376)
chain: MVPGEENQLVPKEDVFWRCRQNIFDEMKKKFLQIENAAEEPRVLCIIQDTTNSKTVSERITLNLPASTPVRKLFEDVANKVGYINGTFDLTRENGVTTADMAPLDHTSDKSLLDANFEPGKKNFLHLTDKDGEPPQMLLEDSNNVDDSVHDRFIGPLPREGSVASTNDYVSQNYSYSSILNKSETGYVGLVNQAMTCYLNSLLQTLFMTPEFRNALYKWEFEDSEEDPVTSIPYQLQRLFVLLQTSKKRAIETTDVTRSFGWDSSEAWQQHDVQELCRVMFDALEQKWKQTEQADLINELYQGKLKDYVRCLECGYEGWRIDTYLDIPLVIRPYGSSQAFASVEEALHAFIQPEILDGPNQYFCERCKKKCDARKGLRFLHFPYLLTLQLKRFDFDYTTMHRIKLNDRMSFPEELDMSTFIDIEDEKSPQTESCTDSGAENEGSCHSDQMSNDFSTDDAVDEGICLESSSGSEKISKPGLEKNSLMYELFSVMVHSGSAAGGHYYACIKSFSDDQWYSFNDQHVSRITQEDIKKTHGGSSGSRGYYSSAFASSTNAYMLIYRLKDPTRNAKFLEVDEYPEHIKNLVQKERELEEQEKRQREIERNTCKIKLFCLHPVKQVMMENKLEVHKDKTLKEAVEMAYKMMDLEDVIPLDCCRLVKYDEFHDYLERSYEGEEDTPMGLLLGGVKSTYMFDLLLETRKPDQIFQSYKPGEVMVKVHVVDLKAETVAAPVTVRAYLNQTVTEFKQLISKATHLPADSMRIVLERCYNDLRLLSMPSKTLKAEGFFRSNKVFVESSETVDHQAAFTDSHLWKLLDRHANTIRLFVLLPEQSPGSYSKRTAYQKAGGDSGNVDDDCERVKGPAGNLKSVDAILEESTEKLKSLSLQQQQQDGDNGDSSKSTETSDFENIESPLNERGSSTSVDNRELEQHIQTSDPENFQSEERSDSDVNNDRSTSSVDSDILSSSHSSDTLCNADSAQIPLANGLDSHSITSSRRTKANEGKKETWDTAEEDSGTDSEYDESGKSRGDMQYMYFKADPYTADEGSGEGHKWLMVHVDKRITLAAFKQHLEPFVGVLSSHFKVFRVYTSNQEFETVRLNETLSSFSDDNKITIRLGRALKKGEYRVKVCQLLVNEQEPCKFLLDAVFAKGMTVRQSKEELIPQLREQCGLDLSIDRFRLRKKTWKNPGTVFLDYHIYEEDINISSNWEVFLEVLDGVEKMKSMSQLAILTRRWRPAEMKLDPFQELVLESNSVDELREKLSEISGIPLEDIEFAKGRGTFPCDISVLDIHQDLDWNPKVSTLNVWPLYICDDGAVIFYRDRTEEVMELTDEQRNELMKKESSRLQKTGHRVTYSPRKEKALKIYLDGAPNKDVAQD
B2: USP43, endogenous (enzyme, UniProt Q8BUM9 1-1132)
chain: MDPGVGNALGEGPPAPRPRRRRSLRRLLNRFLLALGSRSRSGDSPPRPPAQPSPYDGDGEGGFACAPGPAPASAGSPGPDRPPGSQPQISSGDGARPPGAQGLKNHGNTCFMNAVVQCLSNTDLLAEFLALGRYRAAPGRAEVTEQLAALVRALWTREYTPQLSAEFKNAVSKYGSQFQGNSQHDALEFLLWLLDRVHEDLEGSAHGLVSEQLPPEVSKISEDLRPSAAPTSLGPSFVQSHFQAQYRSSLTCPHCLKQSNTFDPFLCVSLPIPLRQTRFLSVTLVFPSKSQRFLRVGLAVPILSTVAALRKMVAEEGGVPAEEVILVELYPNGFQRSFFDEEDLNTIAEGDNVYAFQVPPSPGLGTLSAHPSGLSVSPRLPVRDSQRFSGPLHSENRVVFLFCNLVGSGQQASRFGPPFLIREDRTISWAQLQQCILSKVRCLMRSEVSAQDLGTLFSIRVVGLSLACSYLSPKDNRPLCHWAVDRALHLRRPGGPPHVKLAVEWDSSVTERLFGSLQEERVQDADSVWRQQQAHQQPSCTLDECFQSYTKEEQLAQDDAWKCPHCQVLQQGVVKLSLWTLPDILIIHLKRFCQVGERRNKLSTLVKFPLSGLNMAPHVARRSTNSKAGPGPWSSWKQPICLPTTYPLDFLYDLYAVCNHHGSLQGGHYTAYCRNSLDGQWYSYDDSTVEALREDEVNTRGAYILFYQKRNSIPPWSASSSMRGSTSSSLSDHWLMRLGSLNNSTRGSLLSWSSAPCPSMARVPDSPVFTNGVCHQDKGGVETRPLVRGVGGRSISMKASPASRSRHGPFKTMPLRWSFGHREKRPGASVELVEYLESRRRPRSTSQSIVPLLTRAAGGEETSASPRSDGTLPAKSEDSGRAIGQGTTGVPLSSCHLNHHPALGSLDDSLHTARTRTGNVSQDIRLPKKFDLPLTVMPSVGDEKPARPEGQKMTPWKGSSQVGSQSSPPSPSTGLLRNFKDSGPGTLPKMKSKAAMEERAPDKDRGQGTFTLLKSVFWKKEHKRTVRTESSPPAPPISLGSDRLSPAAMNEQALRIRESPAKGLGNHMERDIRSAPSSLHLPRKASRPPRASTAGTSQRTIPGEQISYGTLQRVKYHTLSLGRKKSLPESSF
B3: ubiquitin-specific protease 15 (USP15), endogenous (enzyme, UniProt Q8R5H1 1-981)
chain: MAEGGAADLDTQRSDIATLLKTSLRKGDTWYLVDSRWFKQWKKYVGFDSWDKYQMGDQNVYPGPIDNSGLLKDGDAQSLKEHLIDELDYILLPTEGWNKLVSWYTLMEGQEPIARKVVEQGMFVKHCKVEVYLTELKLCENGNMNNVVTRRFSKADTIDTIEKEIRKIFNIPDEKEARLWNKYMSNTFEPLNKPDSTIQDAGLYQGQVLVIEQKNEDGTWPRGPSTPKSPGASNFSTLPKISPSSLSNNYNNINNRNVKNSNYCLPSYTAYKNYDYSEPGRNNEQPGLCGLSNLGNTCFMNSAIQCLSNTPPLTEYFLNDKYQEELNFDNPLGMRGEIAKSYAELIKQMWSGKFSYVTPRAFKTQVGRFAPQFSGYQQQDCQELLAFLLDGLHEDLNRIRKKPYIQLKDADGRPDKVVAEEAWENHLKRNDSIIVDIFHGLFKSTLVCPECAKISVTFDPFCYLTLPLPMKKERSLEVYLVRMDPLAKPMQYKVIVPKIGNILDLCTALSALSGVPADKMIVTDIYNHRFHRIFAVDENLSSIMERDDIYVFEININRAEDTEHVVIPVCLREKFRHSSYTHHTGSSLFGQPFLMAIPRNNTEDKLYNLLLLRMCRYVKMSTETEETDGHLRCCEDQNINGNGPNGLHEEGSPSEMETDEPDDESSQDQELPSENENSQSEDSVGGDNDSENGLCTEETCKGQLTGHKKRLFTFQFNNLGNNDINYIKDDTSHIRFDDRQLRLDERSFLALDWDPDLKKRYFDENAAEDFEKHESVEYKPPKRPFVKLKDCIELFTTKEKLGAEDPWYCPNCKEHQQATKKLDLWSLPPVLVVHLKRFSYSRYMRDKLDTLVDFPISDLDMSEFLINPNAGPCRYNLIAVSNHYGGMGGGHYTAFAKNKDDGKWYYFDDSSVSTASEDQIVSKAAYVLFYQRQDTFSGTGFFPLDRETKGASAATGIPLESDEDSNDNDNDLENENCMHTN
B4: Dusp28, endogenous (enzyme, UniProt Q8BTR5 1-163)
chain: MGTSEAAPPPFARVAPALFIGNARAAGATELLVRAGITLCVNVSRQQPGPRAPGVAELRVPVFDDPAEDLLTHLEPTCAAMEAAVRDGGSCLVYCKNGRSRSAAVCTAYLMRHRGHSLDRAFQMVKSARPVAEPNLGFWAQLQKYEQTLQAQAILPREPIDPE

molecular target: T1, p66Shc (66 kDa isoform of ShcA), endogenous (mouse (endogenous in mouse liver and AML12)); experiment: affinity purification with mass spectrometry; IP with anti-p66Shc antibody on Protein A/G magnetic beads from AML12 cells exposed to H/R; room temperature 1 h; SDS-PAGE, Coomassie, in-gel digestion, LC-MS/MS; search of the UniProt human database

binding, binds:
USP14, endogenous (from UniProt Q9JMA1 1-493) (enzyme)
USP10, endogenous (from UniProt P52479 1-792) (enzyme)
USP5, endogenous (from UniProt P56399 1-858) (enzyme)
B1
B2
B3
B4
